Experimental data reported in US20120258938A1, “Enzymatic Production or Chemical Synthesis and Uses for 5,7-Dienes and UVB Conversion Products Thereof” (priority 2008, published 2012).

Substrate: C=C1CC[C@H](O)C/C1=C/C=C1\CCC[C@]2(C)[C@@H]([C@H](C)CCCC(C)C)CC[C@@H]12
Test: not read
Details: other: substrate in 0.45% cyclodextrin; pH 7.4; 37.0 °C

B1: cytochrome P450scc (Bos taurus) (protein)
chain: ISTKTPRPYSEIPSPGDNGWLNLYHFWREKGSQRIHFRHIENFQKYGPIYREKLGNLESVYIIHPEDVAHLFKFEGSYPERYDIPPWLAYHRYYQKPIGVLFKKSGTWKKDRVVLNTEVMAPEAIKNFIPLLNPVSQDFVSLLHKRIKQQGSGKFVGDIKEDLFHFAFESITNVMFGERLGMLEETVNPEAQKFIDAVYKMFHTSVPLLNVPPELYRLFRTKTWRDHVAAWDTIFNKAEKYTEIFYQDLRRKTEFRNYPGILYCLLKSEKMLLEDVKANITEMLAGGVNTTSMTLQWHLYEMARSLNVQEMLREEVLNARRQAEGDISKMLQMVPLLKASIKETLRLHPISVTLQRYPESDLVLQDYLIPAKTLVQVAIYAMGRDPAFFSSPDKFDPTRWLSKDKDLIHFRNLGFGWGVRQCVGRRIAELEMTLFLIHILENFKVEMQHIGDVDTIFNLILTPDKPIFLVFRPFNQDPPQA
- Km: 30 ± 2 µM
